PubChem BioAssay AID1224826 – NIAID – 2016
The deposit covers about 17,000 reagents; below is an unselected part. Over the whole deposit, about 1,110 (6.6%) were called active. 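Active means lowered or raised reporter signal; replicate intensities are raw and not normalised per plate.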 A number with no mark means an inactive call. Not all columns of the deposit are shown.

- Screen: 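Knock-downs that raise or lower Tnf reporter signal after endotoxin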 (primary screen)
- Cells: RAW264.7 G9 macrophages from mouse bearing reporters for p65 (GFP) and the Tnf promoter (mCherry)
- Reagents: siRNA pool against mouse genes, 100 nM
- Duration: 16 h of LPS stimulation, after 2 days of siRNA transfection
- Conditions: bacterial lipopolysaccharide (Salmonella minnesota R595), 10 ng/ml
- Measurement: 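Nuclear mCherry signal of the Tnf promoter reporter measured by imaging after background removal, scaled to each plate median and turned into robust z-scores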
- Direction: Tnf reporter robust z-score: higher = stronger Tnf promoter reporter signal after LPS; Tnf reporter intensity: higher = stronger Tnf promoter reporter signal
- Call rule: 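Called active when robust z-score is at most -1.3, matching the median of the Tlr4 knock-down control, or over 3; control wells and wells with under 50 cells never active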
- Meaning of the calls: active = Tnf reporter clearly lowered or raised; inactive = no clear change in Tnf reporter

no.	Target gene	Tnf reporter robust z-score	fewer than 50 cells in well	Tnf reporter intensity, replicate 1
1	Cpne6	0.05	enough cells in well	119
2	A630001G21Rik	0.45	enough cells in well	175
3	Cttn	0.37	enough cells in well	303
4	Cct4	0.51	enough cells in well	324
5	Arpc5l	0.96	enough cells in well	236
6	Macroh2a2	-0.95	enough cells in well	158
7	Calm1	-0.14	enough cells in well	110
8	Or2z8	-1.87 (active)	enough cells in well	73.1
9	Sult3a1		fewer than 50 cells per well; well left out of calls	92.4
10	Eif4ebp3	0.54	enough cells in well	213
11	Atp2a3	0.7	enough cells in well	170
12	Hs6st1	-1.28	enough cells in well	157
13	Rnf168		fewer than 50 cells per well; well left out of calls	192
14	Slco5a1		fewer than 50 cells per well; well left out of calls	79
15	Guca1b	2.05	enough cells in well	425
16	Clk2		fewer than 50 cells per well; well left out of calls	91.2
17	Mgll	0.95	enough cells in well	366
18	Tecrl	1.41	enough cells in well	133
19	Tmem54		fewer than 50 cells per well; well left out of calls	151
20	Gigyf2	-0.51	enough cells in well	101
21	Galr1	0.53	enough cells in well	301
22	Csf1	0.12	enough cells in well	228
23	Poglut1	1	enough cells in well	244
24	C130058G22RIK	0.71	enough cells in well	115
25	Ppil1	0.01	enough cells in well	243
26	Pcdhb5	-0.82	enough cells in well	216
27	5430414B19Rik	-1.08	enough cells in well	129
28	Trpc4	0.62	enough cells in well	251
29	Or12e10	-0.77	enough cells in well	151
30	Ctps1	-0.27	enough cells in well	200
31	Kif1a	-0.16	enough cells in well	238
32	Mfn1	-0.87	enough cells in well	121
33	Klra15	-0.39	enough cells in well	201
34	Abcb10	-0.99	enough cells in well	179
35	Kcnn1	-1.03	enough cells in well	147
36	Tmem74	-1.18	enough cells in well	101
37	Ctsb	0.11	enough cells in well	257
38	Snx14	-0.88	enough cells in well	77.4
39	Ube2v2	0.85	enough cells in well	277
40	Akr1d1	0.38	enough cells in well	198
41	Tmem147	-1.1	enough cells in well	143
42	Or1e1f	-0.39	enough cells in well	157
43	Rexo4	1.34	enough cells in well	379
44	Mdfi		fewer than 50 cells per well; well left out of calls	90.8
45	Acsl6	1.42	enough cells in well	183
46	Rprd1b	0.26	enough cells in well	269
47	Prodh	0.1	enough cells in well	262

Targets above whose target name begins with R or r:
Target gene	Tnf reporter robust z-score	fewer than 50 cells in well	Tnf reporter intensity, replicate 1
Rnf168		fewer than 50 cells per well; well left out of calls	192
Rexo4	1.34	enough cells in well	379
Rprd1b	0.26	enough cells in well	269

The list goes on.
no.	Target gene	Tnf reporter robust z-score	fewer than 50 cells in well	Tnf reporter intensity, replicate 1
48	Clec1b	-1.41 (active)	enough cells in well	118
49	Irx2	-0.98	enough cells in well	127
50	Sf3b3	-1.49 (active)	enough cells in well	23.8
51	Rcvrn	-0.17	enough cells in well	295
52	Gng7	0.27	enough cells in well	194
53	Nsun2	-0.09	enough cells in well	194
54	Itpa	-1.12	enough cells in well	142
55	Ppp1cc	0.53	enough cells in well	288
56	Prmt2	-1.24	enough cells in well	167
57	Tafazzin	0.06	enough cells in well	222
58	Zfp607b	0.38	enough cells in well	142
59	Emc1		fewer than 50 cells per well; well left out of calls	56
60	Mfsd1		fewer than 50 cells per well; well left out of calls	139
61	Smpd4	1.48	enough cells in well	246
62	H2az1	-1.01	enough cells in well	153
63	Unc80	2.57	enough cells in well	247
64	Fam163a	-0.46	enough cells in well	143
65	Or2t45	-0.66	enough cells in well	127
66	Prodh2	0.05	enough cells in well	257
67	Otop1	-0.45	enough cells in well	111
68	Klhl7	1.9	enough cells in well	226
69	St6galnac5	0.5	enough cells in well	126
70	Trp53rka	0.77	enough cells in well	213
71	Or8b48	1.97	enough cells in well	273
72	Tmem81		fewer than 50 cells per well; well left out of calls	191
73	Aar2	2.74	enough cells in well	465
74	Cd300ld3	0.48	enough cells in well	172
75	Chst7	-0.66	enough cells in well	128
